Measured data: PubChem BioAssay AID1259254 (NCATS, 2017)
Screen: 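Finding genes that stop cells copying their DNA twice in one cycle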 (primary screen). Cells: human HCT116 colorectal cancer cells. Reagent: single siRNA against human genes. Duration: 3 days. Detection: 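Imaged Hoechst DNA stain sorts each cell into a cycle phase by DNA amount; per plate, G2 fraction set to 0% for non-targeting and 100% for GMNN siRNA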. Direction: G2 robust z-score and G2 cells, % of GMNN control: higher = more G2 cells, more excess DNA replication. Active means: 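Active siRNAs have a G2 robust z of 5 or more median absolute deviations over the median, which in these data means about 38% or higher of GMNN control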.
The deposit covers about 59,000 reagents; this is a random part of them. About 1,550 of them (2.6%) count as active. 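G2 share is only a proxy for re-replication; each gene was hit by three separate siRNAs, and active genes were retested.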 The numbers tell different reagents against one gene apart. Further read-outs or replicates are left out here. The record does not give: the amount of reagent.

no.	gene	reagent no.	G2 robust z-score	G2 cells, % of GMNN control	outcome
1	FKBP8 (GeneID 23770)	1	2	17	inactive
2	FKBP8 (GeneID 23770)	2	0.347	5.41	inactive
3	FKBP8 (GeneID 23770)	3	-0.964	-3.82	inactive
4	LOC727978 (retired record) (GeneID 727978)	1	-0.141	1.97	inactive
5	LOC727978 (retired record) (GeneID 727978)	2	0.398	5.77	inactive
6	LOC727978 (retired record) (GeneID 727978)	3	0.83	8.81	inactive
7	FBP2 (GeneID 8789)	1	-0.67	-1.75	inactive
8	FBP2 (GeneID 8789)	2	1.61	14.3	inactive
9	FBP2 (GeneID 8789)	3	-0.843	-2.96	inactive
10	LIX1 (GeneID 167410)	1	-0.06	2.54	inactive
11	LIX1 (GeneID 167410)	2	-0.25	1.21	inactive
12	LIX1 (GeneID 167410)	3	-0.418	0.0248	inactive
13	KIAA2012 (GeneID 100652824)	1	-0.49	-0.48	inactive
14	KIAA2012 (GeneID 100652824)	2	1.91	16.4	inactive
15	KIAA2012 (GeneID 100652824)	3	0.289	5	inactive
16	KIAA2012 (GeneID 100652824)	4	1.51	13.6	inactive
17	KIAA2012 (GeneID 100652824)	5	-0.467	-0.318	inactive
18	KIAA2012 (GeneID 100652824)	6	0.974	9.82	inactive
19	BTBD9 (GeneID 114781)	1	1.86	16	inactive
20	BTBD9 (GeneID 114781)	2	2	17	inactive
21	BTBD9 (GeneID 114781)	3	0.95	9.65	inactive
22	LINC01104 (GeneID 150577)	1	0.771	8.39	inactive
23	LINC01104 (GeneID 150577)	2	-0.306	0.813	inactive
24	LINC01104 (GeneID 150577)	3	1.3	12.1	inactive
25	TXNL1 (GeneID 9352)	1	2.06	17.5	inactive
26	TXNL1 (GeneID 9352)	2	0.364	5.53	inactive
27	TXNL1 (GeneID 9352)	3	2.27	19	inactive
28	MIOX (GeneID 55586)	1	1.79	15.6	inactive
29	MIOX (GeneID 55586)	2	-1.13	-4.97	inactive
30	MIOX (GeneID 55586)	3	-0.211	1.48	inactive
31	MAFB (GeneID 9935)	1	-0.224	1.39	inactive
32	MAFB (GeneID 9935)	2	-0.0707	2.47	inactive
33	MAFB (GeneID 9935)	3	-0.64	-1.53	inactive
34	BRIP1 (GeneID 83990)	1	2.95	23.7	inactive
35	BRIP1 (GeneID 83990)	2	-0.401	0.143	inactive
36	BRIP1 (GeneID 83990)	3	-0.754	-2.34	inactive
37	STARD6 (GeneID 147323)	1	-0.829	-2.86	inactive
38	STARD6 (GeneID 147323)	2	-0.162	1.82	inactive
39	STARD6 (GeneID 147323)	3	-0.584	-1.14	inactive
40	DNAJC18 (GeneID 202052)	1	0.0649	3.42	inactive
41	DNAJC18 (GeneID 202052)	2	0.806	8.64	inactive
42	DNAJC18 (GeneID 202052)	3	0.00552	3.01	inactive
43	PTPRS (GeneID 5802)	1	-0.275	1.04	inactive
44	PTPRS (GeneID 5802)	2	0.189	4.3	inactive
45	PTPRS (GeneID 5802)	3	-0.121	2.12	inactive
46	NDUFB4P12 (GeneID 402175)	1	-0.631	-1.47	inactive
47	NDUFB4P12 (GeneID 402175)	2	-0.0136	2.87	inactive
48	NDUFB4P12 (GeneID 402175)	3	0.201	4.38	inactive

Sorted by “G2 cells, % of GMNN control” (low to high): 6 of the entries above
gene	reagent no.	G2 robust z-score	G2 cells, % of GMNN control	outcome
LINC01104 (GeneID 150577)	2	-0.306	0.813	inactive
TXNL1 (GeneID 9352)	2	0.364	5.53	inactive
LINC01104 (GeneID 150577)	3	1.3	12.1	inactive
MIOX (GeneID 55586)	1	1.79	15.6	inactive
TXNL1 (GeneID 9352)	1	2.06	17.5	inactive
TXNL1 (GeneID 9352)	3	2.27	19	inactive
